Paper PMC5451212, “RISC-interacting clearing 3’- 5’ exoribonucleases (RICEs) degrade uridylated cleavage fragments to maintain functional RISC in Arabidopsis thaliana” (eLife, 2017)
Where two headings read alike, the source gives them in different places. These are yes or no findings as the source states them, for the method shown. Binding seen in cells or lysates may run through a third protein. These calls come from enrichment with a bait or labelling near it, and not all partners need be listed. Where a sequence is shown, tags or fusion partners need not be part of it.

T1: Flag-4Myc-AGO10 (A. thaliana) (UniProt Q9XGW1)
T1 sequence: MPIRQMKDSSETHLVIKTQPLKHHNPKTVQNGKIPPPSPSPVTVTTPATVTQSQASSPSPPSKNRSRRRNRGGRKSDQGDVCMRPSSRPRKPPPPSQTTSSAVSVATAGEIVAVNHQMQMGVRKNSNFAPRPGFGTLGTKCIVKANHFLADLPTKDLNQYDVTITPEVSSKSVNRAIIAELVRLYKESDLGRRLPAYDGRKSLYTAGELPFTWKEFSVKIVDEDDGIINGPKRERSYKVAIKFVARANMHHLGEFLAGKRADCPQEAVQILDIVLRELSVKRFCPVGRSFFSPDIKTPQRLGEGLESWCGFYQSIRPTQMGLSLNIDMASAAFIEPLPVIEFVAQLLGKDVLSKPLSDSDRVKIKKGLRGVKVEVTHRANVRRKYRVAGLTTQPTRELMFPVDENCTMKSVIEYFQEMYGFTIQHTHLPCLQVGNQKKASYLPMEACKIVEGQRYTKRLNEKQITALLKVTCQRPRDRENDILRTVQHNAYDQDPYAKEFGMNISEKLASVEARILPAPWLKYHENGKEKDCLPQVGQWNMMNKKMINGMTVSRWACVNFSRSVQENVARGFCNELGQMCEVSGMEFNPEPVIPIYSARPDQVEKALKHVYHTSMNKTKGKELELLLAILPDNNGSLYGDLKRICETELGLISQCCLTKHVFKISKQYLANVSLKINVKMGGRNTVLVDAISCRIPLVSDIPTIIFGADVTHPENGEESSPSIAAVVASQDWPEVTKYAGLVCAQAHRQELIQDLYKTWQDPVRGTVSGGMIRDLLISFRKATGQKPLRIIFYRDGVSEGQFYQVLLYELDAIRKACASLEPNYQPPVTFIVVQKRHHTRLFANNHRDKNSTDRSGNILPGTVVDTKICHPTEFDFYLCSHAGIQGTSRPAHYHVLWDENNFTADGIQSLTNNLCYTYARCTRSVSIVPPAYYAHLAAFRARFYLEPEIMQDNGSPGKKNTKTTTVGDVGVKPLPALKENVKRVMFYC

B1: RICE1 (At3g11770), endogenous or untagged overexpressed (protein, UniProt Q9SF21 1-200)
chain: MASFDGQGFMMVDNSWVQTKAIDVESTTDISPYLSKILEDSVWNGNRSIVFDVYWDVKSVSTKSEWRLCSVKFSTKNFCLFLRLPNPFCDNLKDLYRFFASKFVTFVGVQIQEDLALLKENHGIVIRSSLEIGKLAAKARGTPIVEFLGTRELAHKILWYDMSRLDSIQSKWDEASSNDRLEAAAIEGWLIFNVYDQLQQ

What was measured:
[1] = biological target: T1, Flag-4Myc-AGO10 (A. thaliana); assay: affinity purification with mass spectrometry; Flag-4Myc-AGO10 from transgenic A. thaliana MM1 suspension cells; two-step IP (anti-Flag M2 magnetic beads, 3XFlag peptide elution, anti-Myc agarose), 20 mM Tris-HCl pH 7.5, 150 mM NaCl, 4°C; bands absent from the control IP of non-transgenic cells analysed by MS
[2] = biological target: T1, Flag-4Myc-AGO10 (A. thaliana); assay: as above; remark: listed apart in the source

| Molecule | binding [1] | binding [2] |
| --- | --- | --- |
| HSP90 (A. thaliana (endogenous in MM1 cells)) | binds |  |
| B1 |  | binds |
